Data as given in PubChem BioAssay AID686937 (Drosophila RNAi Screening Center, 2013)
In all, the deposit lists about 23,000 reagents; below is a random part of those that have a named target and a result. 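Reduced-secretion tags in replicate 1 do not always agree with the z-scores; no criterion for assigning the tags was given.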 Names joined by + are all predicted targets of the reagent. Not stated in the record: the amount of reagent.

Assay: 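Genes in the fly needed for secretion of protein constitutively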 (primary screen)
Cells: Drosophila S2 cells expressing secreted horseradish peroxidase
Reagents: long dsRNA against Drosophila genes
Duration: about 5.5 days (5 days dsRNA, then 12 h reporter induction)
Conditions: reporter expression induced after 5 days of dsRNA, read 12 h later; inducer not stated
Measured: 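After 5 days of dsRNA and 12 h of reporter induction, medium peroxidase read by chemiluminescence and scored as per-plate z-score; higher values mean more reporter released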
Reading the numbers: z-score: higher = more reporter secreted into medium

Gene | DRSC id | z-score, replicate 1 | z-score, replicate 2 | z-score, replicate 3 | z-score, replicate 4 | phenotype, replicate 1
Npc2a | DRSC00698 | 0.2 | -0.04 | – | – | –
CG32206 | DRSC09602 | 0.16 | 0.28 | 0.27 | 0.11 | –
CG32206 | DRSC10094 | 0.37 | 0.33 | – | – | –
CG32206 | DRSC10095 | 0.22 | 0.23 | – | – | –
CG32206 | DRSC10096 | 0.28 | 0.41 | – | – | –
CG32206 | DRSC11080 | 0.2 | -0.61 | – | – | –
schlank | DRSC18102 | 0.52 | 0.52 | – | – | –
schlank | DRSC18313 | 0.4 | 0.22 | – | – | –
Edc3 | DRSC10620 | 0.28 | 0.1 | – | – | –
sl | DRSC20377 | 0.44 | 0.37 | – | – | –
sl | DRSC21782 | -0.74 | -0.13 | – | – | reduced secretion
alpha-Man-Ib | DRSC14418 | -0.44 | 0.35 | – | – | –
babos | DRSC03923 | 0.36 | 0.36 | – | – | –
babos | DRSC04397 | -0.09 | 0.12 | – | – | –
CG10681 | DRSC09777 | 0.21 | 0.13 | – | – | –
CG10681 | DRSC21484 | 0.38 | -0.49 | – | – | –
CLIP-190 | DRSC03283 | 0.33 | 0.25 | – | – | –
twe | DRSC03628 | 0.25 | 0.29 | – | – | –
CG33463 | DRSC22915 | 0.11 | -0.22 | – | – | –
Mipp2 | DRSC18682 | 0.48 | 0.39 | – | – | –

No new results follow: an excerpt of the list.
Gene | DRSC id | z-score, replicate 1 | z-score, replicate 2 | z-score, replicate 3 | z-score, replicate 4 | phenotype, replicate 1
alpha-Man-Ib | DRSC14418 | -0.44 | 0.35 | – | – | –
babos | DRSC03923 | 0.36 | 0.36 | – | – | –
babos | DRSC04397 | -0.09 | 0.12 | – | – | –

The listing continues.
Gene | DRSC id | z-score, replicate 1 | z-score, replicate 2 | z-score, replicate 3 | z-score, replicate 4 | phenotype, replicate 1
CG2652 | DRSC18501 | 0.45 | -0.1 | 0.26 | 0.03 | –
CG2652 | DRSC22576 | 0.27 | 0.22 | – | – | –
CG14913 | DRSC02397 | 0.4 | 0.21 | – | – | –
CG14451 | DRSC11708 | 0.44 | 0.4 | – | – | –
ERp44 | DRSC20215 | 0.16 | 0.39 | – | – | –
CG11400 | DRSC06070 | 0.32 | 0.37 | – | – | –
CG13385 | DRSC02259 | 0.23 | 0.27 | – | – | –
slv | DRSC07685 | 0.16 | 0.22 | – | – | –
CR12798 | DRSC21078 | 0.33 | 0.28 | – | – | –
CG17930 | DRSC15292 | 0.43 | 0.44 | – | – | –
CG14397 | DRSC02381 | 0.26 | 0.28 | – | – | –
Gyc88E | DRSC15547 | 0.24 | 0.62 | – | – | –
ppk21 | DRSC14466 | 0.2 | 0.32 | – | – | –
CG32846 | DRSC08012 | 0.36 | 0.52 | – | – | –
alpha-Man-Ia | DRSC17642 | -0.89 | -0.89 | – | – | –
alpha-Man-Ia | DRSC18162 | -0.69 | -0.47 | – | – | –
alpha-Man-Ia | DRSC18163 | -0.37 | -0.16 | – | – | –
alpha-Man-Ia | DRSC18735 | 0.31 | 0.58 | – | – | –
Sms | DRSC10408 | 0.22 | 0.09 | – | – | –
CG42741 | DRSC04593 | 0.12 | 0.41 | – | – | –
CG42741 | DRSC22045 | 1.47 | 0.83 | – | – | –
CG3253 | DRSC04350 | 0.18 | 0.41 | -0.03 | -0.17 | –
ND-MLRQ | DRSC11913 | -0.42 | -0.19 | – | – | –
Sec8 | DRSC12300 | 0.23 | 0.15 | – | – | –
Wee1 | DRSC03635 | -0.24 | -0.13 | – | – | –
tapas | DRSC05950 | 0.3 | 0.38 | – | – | –
CG15443 | DRSC00455 | 0.64 | 0.35 | – | – | –
CG33267 | DRSC09120 | 0.79 | 0.5 | – | – | –
geko | DRSC10044 | 0.13 | 0.08 | – | – | –
geko | DRSC10045 | 0.12 | -0.05 | – | – | –
COX2 (retired record) | DRSC21276 | 0.61 | 0.36 | – | – | –
Wbp2 | DRSC09821 | -0.42 | 0.86 | – | – | –
Lcp65Ab2 + Lcp65Ab1 | DRSC10340 | 0.31 | 0.31 | – | – | –
Lcp65Ab2 + Lcp65Ab1 | DRSC10343 | 0.19 | 0.23 | – | – | –
CG42490 (retired record) | DRSC01649 | 0.48 | 0.37 | – | – | –
CG3589 | DRSC04392 | 0.19 | 0.08 | – | – | –
